These are yes or no findings as the source states them, for the method shown. Each block holds one molecule with its values, some of them ahead of it.
Assays:
Assay in all cases: SEC; analytical gel filtration, Superdex 200 Increase 10/300 GL, 20 mM citric acid pH 5.0, 100 mM NaCl; 100 µl of each isolated ectodomain loaded (ANX1, HERK1, THE1 5 mg ml^-1; ANX2 4.5 mg ml^-1), 0.7 ml min^-1; column calibrated with HMW and LMW standards; both purified
[1] = biological target: Arabidopsis thaliana HERCULES1 (HERK1) ectodomain (residues 1-405) (Arabidopsis thaliana) (UniProt Q9LX66)
[2] = biological target: Arabidopsis thaliana ANXUR1 (ANX1) ectodomain (residues 1-429) (Arabidopsis thaliana) (UniProt Q9SR05)
[3] = biological target: Arabidopsis thaliana THESEUS1 (THE1) ectodomain (residues 1-403) (Arabidopsis thaliana) (UniProt Q9LK35)

By UniProt entry, the sequences of proteins in these tests, tags left out. Residues count along the entry.
UniProt Q9LX66, residues 25-405: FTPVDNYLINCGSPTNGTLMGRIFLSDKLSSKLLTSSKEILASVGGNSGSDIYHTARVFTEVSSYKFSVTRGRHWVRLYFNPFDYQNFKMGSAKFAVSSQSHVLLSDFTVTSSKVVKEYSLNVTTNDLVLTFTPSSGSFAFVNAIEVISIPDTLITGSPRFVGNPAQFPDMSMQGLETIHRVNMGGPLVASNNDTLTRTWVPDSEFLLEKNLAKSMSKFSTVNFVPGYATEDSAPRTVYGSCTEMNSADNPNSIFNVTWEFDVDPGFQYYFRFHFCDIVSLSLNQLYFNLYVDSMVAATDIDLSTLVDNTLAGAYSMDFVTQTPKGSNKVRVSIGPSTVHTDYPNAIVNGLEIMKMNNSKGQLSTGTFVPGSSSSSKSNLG

binding [1]: no binding (tested: 5 mg ml^-1 loaded)
Molecule: Arabidopsis thaliana HERCULES1 (HERK1) ectodomain (residues 1-405) (from UniProt Q9LX66 25-405) (domain or fragment)

binding [2]: no binding (tested: 5 mg ml^-1 loaded)
B1: Arabidopsis thaliana ANXUR1 (ANX1) ectodomain (residues 1-429) (domain or fragment, UniProt Q9SR05 27-429)
chain: QDLALSCGTSEASADQDKKKWEPDTKFLKTGNSIHATATYQDPSLLSTVPYMTARIFTAPATYEIPIKGDKRHLLRLYFYPSTYTGLNISNSYFTVEANDVTLLSNFSAAITCQALTQAYLVKEYSLAPTDKDVLSIKFTPSDKYRDAFAFINGIEVIQMPELFDTAALVGFTDQTMDAKTANLQSMFRLNVGGQDIPGSQDSGGLTRTWYNDAPYIFSAGLGVTLQASNNFRINYQNMPVSIAPADIYKTARSQGPNGDINLKSNLTWMFQIDKNFTYILRLHFCEFQLSKINQKVFNIYINNRTAQADTTPADIIGWTGEKGIPMYKDYAIYVDANNGGEEITLQMTPSTFGQPEYYDSSLNGLEIFKMDTMKNLAGPNPEPSPMQAEEEVKKEFKNEKRH
modifications: N-glycosylated; glycans at Asn132, Asn292 and Asn302

binding [3]: no binding (tested: 5 mg ml^-1 loaded)
B2: Arabidopsis thaliana THESEUS1 (THE1) ectodomain (residues 1-403) (domain or fragment, UniProt Q9LK35 23-403)
chain: SALFNPPDNYLISCGSSQNITFQNRIFVPDSLHSSLVLKIGNSSVATSTTSNNSTNSIYQTARVFSSLASYRFKITSLGRHWIRLHFSPINNSTWNLTSASITVVTEDFVLLNNFSFNNFNGSYIFKEYTVNVTSEFLTLSFIPSNNSVVFVNAIEVVSVPDNLIPDQALALNPSTPFSGLSLLAFETVYRLNMGGPLLTSQNDTLGRQWDNDAEYLHVNSSVLVVTANPSSIKYSPSVTQETAPNMVYATADTMGDANVASPSFNVTWVLPVDPDFRYFVRVHFCDIVSQALNTLVFNLYVNDDLALGSLDLSTLTNGLKVPYFKDFISNGSVESSGVLTVSVGPDSQADITNATMNGLEVLKISNEAKSLSGVSSVKSL
modifications: N-glycosylated
